Some peptides are written in HELM: one residue between dots, names in brackets for other building blocks, links after the first $.
Test: general procedure: Fmoc solid-phase peptide synthesis; TentaGel S RAM (0.22 mmol/g); DIC/Oxyma
Conditions: whole synthesis; for final HPLC purity: 220 nm; for final HPLC purity / isolated yield: scale of the general procedure 5 µmol, TFA salt; for isolated mass: scale 5 µmol

PEPTIDE1{M.K.A.K.K.W.F.E.S.L.F.K.T.F.F.K.K.G.K.G.I.Y.P.K.S.S.F.E.K.E.K.K.T.D.K.K.K.K.F.G.G.W.V.W.F.K.K.[am]}$$$$V2.0
final HPLC purity: ≥ 99% | isolated mass (18 x TFA salt): 2.94 mg | isolated yield: 8%

H-MCFCRYRFFYRRRIRFFKWGPYFYVWFGFPFGRKAFFLSVFRRRFC-NH2 (cysteine pairing not given here)
final HPLC purity: > 90% | isolated mass (13 x TFA salt): 2.24 mg | isolated yield: 6%

PEPTIDE1{M.K.K.K.K.K.G.I.L.K.Q.N.N.K.K.K.K.Y.T.L.F.N.R.M.V.V.F.L.F.L.G.F.I.M.I.I.F.V.Q.K.Y.K.K.V.I.Y.H.K.[am]}$$$$V2.0
final HPLC purity: ≥ 99% | isolated mass (17 x TFA salt): 4.80 mg | isolated yield: 12%

PEPTIDE1{M.R.N.F.F.K.K.T.R.L.K.Y.K.G.K.K.E.L.I.K.K.S.R.A.F.G.L.K.T.K.K.R.S.G.F.F.F.P.R.A.L.K.Y.E.E.E.F.Y.[am]}$$$$V2.0
final HPLC purity: ≥ 99% | isolated mass (18 x TFA salt): 3.49 mg | isolated yield: 9%

PEPTIDE1{M.N.N.R.G.P.L.G.R.R.F.K.A.R.R.K.W.K.K.F.V.A.G.K.M.K.K.K.R.K.R.F.K.G.F.K.K.K.G.G.F.T.P.F.V.K.K.F.V.[am]}$$$$V2.0
final HPLC purity: ≥ 99% | isolated mass (23 x TFA salt): 9.60 mg | isolated yield: 22%

PEPTIDE1{M.K.Q.P.S.K.T.K.T.H.F.K.Y.F.L.L.F.L.K.S.V.K.K.V.A.G.F.K.K.K.K.K.K.Y.H.W.R.S.Y.K.E.G.S.C.F.R.K.R.T.[am]}$$$$V2.0
final HPLC purity: ≥ 99% | isolated mass (21 x TFA salt): 2.65 mg | isolated yield: 6%

PEPTIDE1{M.E.A.F.K.K.K.P.R.L.P.L.F.K.V.K.L.T.R.F.L.E.R.A.R.G.L.G.S.Y.R.I.F.E.F.F.K.K.F.G.V.K.K.F.V.S.S.L.R.[am]}$$$$V2.0
final HPLC purity: ≥ 97% | isolated mass (16 x TFA salt): 3.69 mg | isolated yield: 10%

H-MSTRSSSIRRLVEAVRTRFRAALRTVLFFALRTTKRRPRR-NH2
final HPLC purity: 84% | isolated mass (14 x TFA salt): 2.01 mg | isolated yield: 6%

PEPTIDE1{M.W.I.K.W.K.K.P.R.K.W.G.R.R.L.K.K.K.E.K.E.E.L.G.D.Y.I.Y.L.Y.C.K.V.Y.R.L.F.G.F.L.P.Y.F.I.S.K.K.T.A.[am]}$$$$V2.0
final HPLC purity: ≥ 99% | isolated mass (16 x TFA salt): 2.73 mg | isolated yield: 7%

H-MWLKMRKCCGCGFKYCLKCVQKKGRIFKTLGKAKMWPKWFFKIGGKC-NH2 (cysteine pairing not given here)
final HPLC purity: > 83% | isolated mass (15 x TFA salt): 3.49 mg | isolated yield: 9%

PEPTIDE1{M.L.F.G.S.R.A.K.K.Y.G.K.E.A.K.Q.E.K.S.F.Q.Y.P.K.S.S.F.V.A.C.K.K.K.W.K.R.S.K.H.F.F.K.T.F.K.K.K.V.S.[am]}$$$$V2.0
final HPLC purity: ≥ 99% | isolated mass (19 x TFA salt): 9.40 mg | isolated yield: 23%

H-MWFDRKKFFWPGVCLFLLFFPKRFYKKGPEKVFSFRKKYKFARKCKCKL-NH2 (cysteine pairing not given here)
final HPLC purity: 86% | isolated mass (17 x TFA salt): 3.64 mg | isolated yield: 9%

PEPTIDE1{M.K.L.R.R.R.L.R.T.R.M.V.A.L.L.V.L.G.V.L.F.L.L.M.L.F.F.I.I.F.L.R.R.M.L.M.R.R.F.R.A.[am]}$$$$V2.0
final HPLC purity: 96% | isolated mass (12 x TFA salt): 4.25 mg | isolated yield: 13%

PEPTIDE1{M.G.I.G.K.F.Q.K.M.R.F.I.G.A.I.R.A.S.K.G.V.A.K.G.L.L.R.I.A.A.I.R.T.G.R.R.A.L.T.T.[am]}$$$$V2.0
final HPLC purity: > 68% | isolated mass (11 x TFA salt): 2.50 mg | isolated yield: 9%

PEPTIDE1{M.Y.L.K.K.F.L.A.L.K.N.S.L.K.K.L.S.P.F.K.C.A.V.K.S.W.L.K.K.C.A.E.V.T.F.Y.S.K.L.L.G.R.R.G.K.K.D.G.N.[am]}$$$$V2.0
final HPLC purity: > 90% | isolated mass (15 x TFA salt): 4.67 mg | isolated yield: 13%

PEPTIDE1{M.M.K.I.R.N.T.L.R.S.R.K.E.A.V.R.R.I.F.S.L.R.R.R.S.V.F.T.E.M.A.R.A.F.R.R.F.K.A.R.[am]}$$$$V2.0
final HPLC purity: 90% | isolated mass (16 x TFA salt): 4.53 mg | isolated yield: 13%

H-MCFFPRRKSKVKVKGGLCRLLFIFFKTTFCFKAKTKKEIKKGTGKKIVR-NH2 (cysteine pairing not given here)
final HPLC purity: ≥ 99% | isolated mass (17 x TFA salt): 2.99 mg | isolated yield: 8%

PEPTIDE1{M.R.R.K.T.P.V.K.W.K.T.F.F.K.A.L.K.H.K.K.K.I.F.K.K.T.F.E.K.F.K.F.L.A.K.G.P.A.F.L.K.G.F.D.Q.K.L.K.S.[am]}$$$$V2.0
final HPLC purity: > 90% | isolated mass (20 x TFA salt): 9.27 mg | isolated yield: 22%

H-MGFGLWGLFHFKMNVPNLFKNGFIFLIIMIFTVWGLFFGKKKAYIEKFL-NH2
final HPLC purity: 98% | isolated mass (8 x TFA salt): 1.44 mg | isolated yield: 4%

H-MCFCFKAGPKICRGLQRKKKKFKYQTSFTKTGFGFLTKPKSPAR-NH2 (cysteine pairing not given here)
final HPLC purity: 93% | isolated mass (14 x TFA salt): 2.98 mg | isolated yield: 9%

H-MRGRPPKRIRSVIIAQTTTATAKKIVIVLLLIFSSSKRRR-NH2
final HPLC purity: > 85% | isolated mass (12 x TFA salt): 0.35 mg | isolated yield: 1%

PEPTIDE1{M.K.K.L.F.K.K.I.L.K.Y.L.[am]}$$$$V2.0
final HPLC purity: 97% | isolated mass (6 x TFA salt): 4.03 mg | isolated yield: 36%

PEPTIDE1{M.G.W.W.F.P.P.K.T.G.N.G.A.G.K.A.F.K.K.A.A.A.A.K.W.G.G.L.F.L.K.A.A.W.F.A.N.K.G.E.W.G.G.G.F.P.K.G.Y.[am]}$$$$V2.0
final HPLC purity: 75% | isolated mass (9 x TFA salt): 5.27 mg | isolated yield: 17%

PEPTIDE1{M.A.I.R.I.I.G.R.L.A.R.V.R.A.R.V.V.A.R.V.R.S.R.L.L.A.D.D.P.P.E.D.L.L.R.V.A.R.R.R.K.G.R.R.W.L.F.L.S.[am]}$$$$V2.0
final HPLC purity: > 97% | isolated mass (16 x TFA salt): 5.74 mg | isolated yield: 15%

PEPTIDE1{M.N.T.T.S.N.M.I.H.R.A.V.Q.Q.K.R.I.S.F.R.A.A.K.L.T.V.L.F.L.F.K.R.R.L.L.R.R.L.L.R.H.H.E.N.[am]}$$$$V2.0
final HPLC purity: ≥ 99% | isolated mass (15 x TFA salt): 4.03 mg | isolated yield: 11%

H-MKWKVFKKIEKMGRNIRNGIVKAGPAIAVLGEAKAL-NH2
final HPLC purity: 97% | isolated mass (10 x TFA salt): 2.29 mg | isolated yield: 9%

H-MKEKKFFFFCFKKRRGFYKRRFFCKTTCFTYCFYKPRGTKTMPYVFSE-NH2 (cysteine pairing not given here)
final HPLC purity: ≥ 89% | isolated mass (15 x TFA salt): 3.24 mg | isolated yield: 8%

Source: PMC10632401 (Nature Communications, 2023)
